Screening data

Data taken from PubChem BioAssay AID1159506, deposited by NCATS (2015).

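Luminescence from an EWS-FLI1 target-promoter (NR0B1) reporter, set against a CMV-promoter reporter, two days after silencing single genes in TC32 Ewing sarcoma cells. Each siRNA was applied at 20 nM. A z-score of the log NR0B1-over-CMV signal, less the median of siRNAs with the same seed; more negative means a stronger specific loss of the NR0B1 reporter.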

This is part of the screen; most of the strongest results are not listed here. Sequences are the guide (antisense) strand, without overhang.

Result for UGUAGUAAAUCUCCAAUUC against TMEM164 was seed-corrected z-score 0.5327. Result for UAGGUUUCCAGGAACAUGC against GOLT1A was seed-corrected z-score -0.1873. UUCCGAUCACCCUCGUCUC against RASL10B read seed-corrected z-score -0.6863. For UAUACGUCUCGCGCCUCUG against LOC730236 the result was seed-corrected z-score -0.06068. AGAGCUAUGACCACCUUCU against PRB3 read seed-corrected z-score 1.322. Result for UUCAUAGUAAUCGUAGACC against LOC728715 was seed-corrected z-score 0.2154. With ACCUGCAUCGCUUCUACUG against RBM42 the assay gave seed-corrected z-score -0.8284.

UGAGGAACAAGCACCGCCU against TNF gave seed-corrected z-score -1.095. UUCCGAAUAAGAAAUGAUC against BLNK read seed-corrected z-score 0.5633. UUUCACACCAAAGUAAUCA against ANO8 gave seed-corrected z-score 0.6062. For UAAGGGACACGUGGUUGAC against SSTR4 the result was seed-corrected z-score -0.6968. With ACUGUAGGCGCUGUUCUCC against FGF3 the assay gave seed-corrected z-score -0.1455. With UAUGAGUUGAGGUUAGGGU against SPRNP1 the assay gave seed-corrected z-score -1.281. UGUAGAAAAGGUAAUGCCG against LPCAT3 read seed-corrected z-score 0.01287.

For AAUGCCUUUAGCUCAAUCC against GPR83 the result was seed-corrected z-score -0.873. Result for AUUAGGACAAGAGCUGUGA against C3P1 was seed-corrected z-score 0.6853. For AUGCGGAUUAAAAAUCAGC against LINC01567 the result was seed-corrected z-score 0.6262. Result for UGAUGUUGCUGCAACCUCC against FBXL14 was seed-corrected z-score -0.0134. Result for UAUUCAAUCACCUUCCGAC against PDIA2 was seed-corrected z-score 0.4508. For UCGGGUAGCAAUUUACAGG against TLE1 the result was seed-corrected z-score 2.112. UCGGUAUUGAGAUUAGCAC against ZRANB1 read seed-corrected z-score 0.4644.

UUGUUGUUCACCAGCAAGU against MAP1LC3C read seed-corrected z-score -0.6634. With AAUGAGACAGGCACGUGCC against TCL6 the assay gave seed-corrected z-score 0.1498. For UUUUCGAAUGAAGUCCUCC against PCLO the result was seed-corrected z-score 0.8185. For UACUGGUCAGGUUCGUCAG against KPTN the result was seed-corrected z-score 1.061. With UUCCUGUCUAAUAGUGCUG against ZBTB40 the assay gave seed-corrected z-score 0.2682. For AUAAGUUUGAAGACAACUC against SMYD3 the result was seed-corrected z-score -1.004. UAAAAACUUAGGGAGGUUG against TAS2R39 read seed-corrected z-score -0.9961.

UUGCUGAAUAUUGUCCACC against FIBP gave seed-corrected z-score -0.289. UCUUCGCUUAUUAUAUUCC against TAOK1 read seed-corrected z-score -0.005105. With UUGCAUGAAAGCAUAAUUG against GDF3 the assay gave seed-corrected z-score 2.063. Result for AUGUUGUACAUCAUAGAUC against WDR61 was seed-corrected z-score -0.2095. With UAUGGUACGACUAUCAAAG against SRSF11 the assay gave seed-corrected z-score 1.095. AGAUUCACUCGGGUCAGCG against VGF gave seed-corrected z-score 0.7567. UGCCUGAGAACUCUGAGCC against LOC441052 read seed-corrected z-score -1.039.

For UCGGUACCGAGACAGAAGC against PKLR the result was seed-corrected z-score 0.03353. For UCAGGAACAAUGUGACCUG against PTX3 the result was seed-corrected z-score -0.4757. Result for UUCAGGUCCACUCCAUUUG against CPN1 was seed-corrected z-score -0.6136. With UCCUUCACACGAUAACCUG against TNFRSF14 the assay gave seed-corrected z-score 0.05081. Result for UCAACACUAGUGAUUAUCG against TPT1P8 was seed-corrected z-score 0.3455. With AUGAAGUUGAUCUCAUUGU against OR9Q2 the assay gave seed-corrected z-score 0.2354.

The last 2 entries again:

For UCAACACUAGUGAUUAUCG against TPT1P8 the result was seed-corrected z-score 0.3455.
For AUGAAGUUGAUCUCAUUGU against OR9Q2 the result was seed-corrected z-score 0.2354.